Measurements taken from the supplement of paper PMC6411743.
± gives the standard deviation of the averaged measurements. This is a selection; strong and weak results do not stand in their true shares. Most entries show no effect beyond the scatter of the controls.

Chains of the proteins cited; added tags and fusions are not shown. Lines headed by an entry give the natural chain unless they say otherwise; changes in a name come on top.
UniProt P20618: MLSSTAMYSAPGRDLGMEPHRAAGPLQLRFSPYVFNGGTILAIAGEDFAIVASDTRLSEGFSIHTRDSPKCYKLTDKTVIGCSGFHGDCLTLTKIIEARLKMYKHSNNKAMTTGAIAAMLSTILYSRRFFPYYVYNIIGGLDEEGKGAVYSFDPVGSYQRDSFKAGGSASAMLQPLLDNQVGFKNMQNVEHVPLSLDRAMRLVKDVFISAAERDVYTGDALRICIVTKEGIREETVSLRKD
UniProt P16949: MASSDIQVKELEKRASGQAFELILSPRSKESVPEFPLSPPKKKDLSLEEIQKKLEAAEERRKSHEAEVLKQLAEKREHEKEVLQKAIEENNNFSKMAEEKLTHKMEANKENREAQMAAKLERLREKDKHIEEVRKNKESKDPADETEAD
UniProt P33552, whole entry: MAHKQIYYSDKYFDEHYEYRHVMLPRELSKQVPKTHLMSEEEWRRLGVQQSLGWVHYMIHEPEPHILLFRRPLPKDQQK
UniProt P34947, whole entry, looked up: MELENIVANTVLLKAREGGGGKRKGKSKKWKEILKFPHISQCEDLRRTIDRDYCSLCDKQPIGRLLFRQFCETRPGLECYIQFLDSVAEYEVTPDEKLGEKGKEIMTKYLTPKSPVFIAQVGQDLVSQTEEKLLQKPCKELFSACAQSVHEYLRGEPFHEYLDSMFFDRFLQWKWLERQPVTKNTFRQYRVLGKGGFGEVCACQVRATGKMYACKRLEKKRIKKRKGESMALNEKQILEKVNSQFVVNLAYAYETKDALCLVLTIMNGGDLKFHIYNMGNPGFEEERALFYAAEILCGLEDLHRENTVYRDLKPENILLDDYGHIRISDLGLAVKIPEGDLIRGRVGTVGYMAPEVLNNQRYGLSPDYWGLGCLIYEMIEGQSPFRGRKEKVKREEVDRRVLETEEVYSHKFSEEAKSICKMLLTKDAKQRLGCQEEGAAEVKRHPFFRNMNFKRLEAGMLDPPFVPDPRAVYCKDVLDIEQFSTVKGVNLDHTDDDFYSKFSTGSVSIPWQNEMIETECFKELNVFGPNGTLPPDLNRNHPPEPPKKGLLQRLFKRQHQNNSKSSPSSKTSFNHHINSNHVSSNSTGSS
UniProt P30679: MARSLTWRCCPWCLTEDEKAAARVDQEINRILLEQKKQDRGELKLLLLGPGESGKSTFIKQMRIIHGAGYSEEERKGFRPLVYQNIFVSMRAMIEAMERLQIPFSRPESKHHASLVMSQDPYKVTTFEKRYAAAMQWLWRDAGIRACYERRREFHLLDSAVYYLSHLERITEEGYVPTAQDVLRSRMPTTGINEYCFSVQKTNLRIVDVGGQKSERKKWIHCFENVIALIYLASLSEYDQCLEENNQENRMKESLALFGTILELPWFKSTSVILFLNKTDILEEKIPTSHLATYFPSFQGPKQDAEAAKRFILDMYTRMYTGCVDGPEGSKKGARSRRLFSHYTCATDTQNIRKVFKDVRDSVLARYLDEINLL
UniProt P17483: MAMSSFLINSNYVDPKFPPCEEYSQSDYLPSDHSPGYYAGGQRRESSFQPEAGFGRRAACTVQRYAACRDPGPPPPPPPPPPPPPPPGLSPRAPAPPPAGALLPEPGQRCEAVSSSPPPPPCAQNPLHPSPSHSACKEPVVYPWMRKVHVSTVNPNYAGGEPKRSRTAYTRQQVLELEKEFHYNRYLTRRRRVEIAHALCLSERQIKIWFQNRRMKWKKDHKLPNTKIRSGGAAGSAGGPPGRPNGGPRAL
UniProt P20336: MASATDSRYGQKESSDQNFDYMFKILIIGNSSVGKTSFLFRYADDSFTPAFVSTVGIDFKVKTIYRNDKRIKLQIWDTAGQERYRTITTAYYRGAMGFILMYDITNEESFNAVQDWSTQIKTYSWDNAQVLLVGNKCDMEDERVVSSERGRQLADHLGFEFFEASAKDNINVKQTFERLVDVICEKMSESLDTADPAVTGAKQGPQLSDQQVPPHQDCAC
UniProt P28799: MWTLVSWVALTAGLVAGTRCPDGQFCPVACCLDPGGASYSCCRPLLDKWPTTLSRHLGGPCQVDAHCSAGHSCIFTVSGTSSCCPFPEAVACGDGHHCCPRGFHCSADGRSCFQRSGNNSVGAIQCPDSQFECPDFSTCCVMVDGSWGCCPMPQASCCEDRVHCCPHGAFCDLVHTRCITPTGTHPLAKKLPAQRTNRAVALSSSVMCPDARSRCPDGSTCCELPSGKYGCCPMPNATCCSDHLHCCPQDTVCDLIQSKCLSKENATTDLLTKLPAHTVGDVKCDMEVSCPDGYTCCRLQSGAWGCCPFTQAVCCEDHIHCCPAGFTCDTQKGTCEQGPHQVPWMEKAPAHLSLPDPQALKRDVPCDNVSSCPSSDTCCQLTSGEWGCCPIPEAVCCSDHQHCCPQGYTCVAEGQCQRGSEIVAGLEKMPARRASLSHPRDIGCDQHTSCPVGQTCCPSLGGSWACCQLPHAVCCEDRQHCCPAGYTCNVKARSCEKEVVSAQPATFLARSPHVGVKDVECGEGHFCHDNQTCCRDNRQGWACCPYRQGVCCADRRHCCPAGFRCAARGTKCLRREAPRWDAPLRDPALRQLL
UniProt P23511, whole entry: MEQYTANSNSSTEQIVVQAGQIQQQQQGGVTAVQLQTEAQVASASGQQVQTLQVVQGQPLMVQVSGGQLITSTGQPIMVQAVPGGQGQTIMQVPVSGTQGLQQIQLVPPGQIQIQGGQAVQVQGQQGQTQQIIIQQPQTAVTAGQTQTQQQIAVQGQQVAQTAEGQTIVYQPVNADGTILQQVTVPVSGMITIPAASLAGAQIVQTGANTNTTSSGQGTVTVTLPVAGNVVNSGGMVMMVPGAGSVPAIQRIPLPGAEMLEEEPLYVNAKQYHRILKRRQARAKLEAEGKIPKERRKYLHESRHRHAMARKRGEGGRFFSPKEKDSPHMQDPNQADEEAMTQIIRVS
UniProt P16615: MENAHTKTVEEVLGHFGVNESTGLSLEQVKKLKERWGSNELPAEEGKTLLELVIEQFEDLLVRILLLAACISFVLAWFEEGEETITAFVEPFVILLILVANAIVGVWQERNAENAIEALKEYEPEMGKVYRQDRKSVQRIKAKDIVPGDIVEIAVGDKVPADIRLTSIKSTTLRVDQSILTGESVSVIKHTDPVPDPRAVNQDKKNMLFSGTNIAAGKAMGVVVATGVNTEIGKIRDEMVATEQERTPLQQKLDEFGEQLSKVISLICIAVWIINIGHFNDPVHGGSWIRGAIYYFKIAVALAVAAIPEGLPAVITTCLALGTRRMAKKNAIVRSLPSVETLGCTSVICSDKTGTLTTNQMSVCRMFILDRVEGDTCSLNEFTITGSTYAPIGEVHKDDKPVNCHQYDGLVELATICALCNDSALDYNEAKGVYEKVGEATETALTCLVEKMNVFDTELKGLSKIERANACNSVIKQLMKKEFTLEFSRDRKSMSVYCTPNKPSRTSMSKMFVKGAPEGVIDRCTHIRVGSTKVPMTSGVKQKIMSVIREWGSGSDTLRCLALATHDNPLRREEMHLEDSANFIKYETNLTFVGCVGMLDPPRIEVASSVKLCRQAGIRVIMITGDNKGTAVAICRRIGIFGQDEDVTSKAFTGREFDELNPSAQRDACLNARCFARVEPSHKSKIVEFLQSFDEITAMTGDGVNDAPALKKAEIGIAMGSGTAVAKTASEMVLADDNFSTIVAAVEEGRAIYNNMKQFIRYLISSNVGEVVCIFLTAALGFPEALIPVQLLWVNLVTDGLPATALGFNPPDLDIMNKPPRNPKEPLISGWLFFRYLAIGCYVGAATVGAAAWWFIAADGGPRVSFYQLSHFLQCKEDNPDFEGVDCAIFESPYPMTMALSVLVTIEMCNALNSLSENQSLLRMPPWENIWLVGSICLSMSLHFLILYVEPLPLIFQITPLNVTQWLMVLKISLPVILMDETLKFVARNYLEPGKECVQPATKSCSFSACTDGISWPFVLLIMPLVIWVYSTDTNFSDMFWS
UniProt P28072: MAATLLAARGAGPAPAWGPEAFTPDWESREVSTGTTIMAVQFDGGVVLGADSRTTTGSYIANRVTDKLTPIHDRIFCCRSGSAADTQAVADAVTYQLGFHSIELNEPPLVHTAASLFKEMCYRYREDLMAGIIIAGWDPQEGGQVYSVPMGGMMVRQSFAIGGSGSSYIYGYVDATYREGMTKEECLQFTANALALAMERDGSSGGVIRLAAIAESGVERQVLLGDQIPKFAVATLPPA
UniProt P23381: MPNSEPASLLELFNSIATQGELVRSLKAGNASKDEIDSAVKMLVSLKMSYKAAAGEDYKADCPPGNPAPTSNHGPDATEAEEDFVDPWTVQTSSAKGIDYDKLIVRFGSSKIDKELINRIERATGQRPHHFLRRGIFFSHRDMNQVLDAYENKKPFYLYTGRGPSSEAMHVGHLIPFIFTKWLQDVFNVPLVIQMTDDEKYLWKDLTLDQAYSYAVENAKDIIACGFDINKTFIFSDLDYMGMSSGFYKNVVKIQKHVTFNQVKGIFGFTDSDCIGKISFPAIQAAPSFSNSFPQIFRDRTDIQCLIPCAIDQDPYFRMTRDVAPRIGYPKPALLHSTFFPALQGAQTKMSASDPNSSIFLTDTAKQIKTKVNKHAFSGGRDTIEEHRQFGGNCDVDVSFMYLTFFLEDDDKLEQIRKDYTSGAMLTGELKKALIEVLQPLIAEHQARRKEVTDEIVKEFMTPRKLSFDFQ
UniProt P21580: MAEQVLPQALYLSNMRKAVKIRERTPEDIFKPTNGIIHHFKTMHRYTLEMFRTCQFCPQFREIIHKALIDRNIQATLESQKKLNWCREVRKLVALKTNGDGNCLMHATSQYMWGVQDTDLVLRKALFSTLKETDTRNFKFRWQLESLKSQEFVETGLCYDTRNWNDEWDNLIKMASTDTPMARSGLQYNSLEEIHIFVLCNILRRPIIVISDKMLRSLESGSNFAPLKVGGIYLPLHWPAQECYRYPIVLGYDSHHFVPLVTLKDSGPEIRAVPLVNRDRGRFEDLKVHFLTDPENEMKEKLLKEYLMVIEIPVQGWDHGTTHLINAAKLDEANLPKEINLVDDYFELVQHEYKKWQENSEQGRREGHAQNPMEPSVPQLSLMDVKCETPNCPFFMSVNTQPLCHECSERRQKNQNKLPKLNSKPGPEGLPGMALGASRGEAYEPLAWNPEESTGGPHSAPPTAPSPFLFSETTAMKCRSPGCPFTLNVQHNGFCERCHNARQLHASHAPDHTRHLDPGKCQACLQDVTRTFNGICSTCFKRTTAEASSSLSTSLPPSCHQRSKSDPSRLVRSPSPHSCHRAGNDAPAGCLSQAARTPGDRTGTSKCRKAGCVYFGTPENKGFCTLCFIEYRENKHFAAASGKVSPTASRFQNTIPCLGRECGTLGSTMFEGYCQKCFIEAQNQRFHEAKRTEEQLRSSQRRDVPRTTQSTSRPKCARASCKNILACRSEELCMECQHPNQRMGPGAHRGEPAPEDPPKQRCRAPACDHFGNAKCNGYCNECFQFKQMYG
UniProt P23610: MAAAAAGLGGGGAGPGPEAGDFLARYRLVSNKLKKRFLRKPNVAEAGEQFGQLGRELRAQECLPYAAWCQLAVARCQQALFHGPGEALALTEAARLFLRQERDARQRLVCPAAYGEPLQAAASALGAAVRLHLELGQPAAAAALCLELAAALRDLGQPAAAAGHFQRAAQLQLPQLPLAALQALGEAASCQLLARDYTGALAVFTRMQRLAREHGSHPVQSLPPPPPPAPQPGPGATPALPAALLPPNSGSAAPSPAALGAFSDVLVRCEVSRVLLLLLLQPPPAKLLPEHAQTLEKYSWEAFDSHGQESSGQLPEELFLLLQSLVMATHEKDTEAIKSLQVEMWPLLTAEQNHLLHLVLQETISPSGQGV
UniProt P17010: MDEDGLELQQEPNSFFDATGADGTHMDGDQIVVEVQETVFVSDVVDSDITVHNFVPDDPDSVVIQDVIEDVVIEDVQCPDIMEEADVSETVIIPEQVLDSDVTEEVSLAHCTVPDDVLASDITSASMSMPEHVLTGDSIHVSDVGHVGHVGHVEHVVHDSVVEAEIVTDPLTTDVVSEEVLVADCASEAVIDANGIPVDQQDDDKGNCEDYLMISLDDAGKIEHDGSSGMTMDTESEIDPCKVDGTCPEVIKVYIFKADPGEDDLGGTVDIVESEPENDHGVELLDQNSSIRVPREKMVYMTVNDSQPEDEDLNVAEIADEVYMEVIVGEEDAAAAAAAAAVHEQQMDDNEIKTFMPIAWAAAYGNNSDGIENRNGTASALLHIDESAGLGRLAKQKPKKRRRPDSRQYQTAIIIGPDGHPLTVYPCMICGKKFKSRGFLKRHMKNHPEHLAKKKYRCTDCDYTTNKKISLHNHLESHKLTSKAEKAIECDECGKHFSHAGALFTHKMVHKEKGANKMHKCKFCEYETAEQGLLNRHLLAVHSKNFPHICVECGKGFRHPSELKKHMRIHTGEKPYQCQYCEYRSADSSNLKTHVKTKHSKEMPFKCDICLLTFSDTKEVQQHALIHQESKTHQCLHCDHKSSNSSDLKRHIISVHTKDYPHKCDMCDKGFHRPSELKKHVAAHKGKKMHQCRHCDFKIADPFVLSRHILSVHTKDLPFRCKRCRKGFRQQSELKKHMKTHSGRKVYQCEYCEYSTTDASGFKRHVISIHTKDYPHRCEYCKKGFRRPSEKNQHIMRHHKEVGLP

Compound: Nc1ncnc2c1ncn2[C@@H]1O[C@H](COP(=O)(O)OP(=O)(O)OP(=O)(O)O)[C@@H](O)[C@H]1O [adenosine triphosphate]
Experiment: NP40-soluble protein abundance relative to vehicle (solubility fold change) (ratio); higher = more soluble protein in presence of ATP
Outline: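 Jurkat crude lysate (Dounce-homogenised) was treated with eight concentrations from 0.1 to 10 mM for 10 min at room temperature, then 3 min at 37 °C. It was solubilised with 0.8% NP40 and benzonase (60 min, 4 °C) and ultracentrifuged, and the supernatant was TMT-labelled for LC-MS/MS. Intensities were vsn-normalised, and the value is the fold change against the NP40-processed vehicle per replicate, from three independent experiments.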

Target	NP40-soluble protein abundance (concentration: 0.1mM)	NP40-soluble protein abundance (concentration: 0.5mM)
UniProt P27701 and related entries	0.89 ± 0.049	0.8 ± 0.2
CPT2 (UniProt P23786)	1.05 ± 0.089	1.05 ± 0.07
JUND (UniProt P17535)	0.93 ± 0.16	0.844 ± 0.16
CMPK1 (UniProt P30085)	0.987 ± 0.015	1.01 ± 0.048
PSMB1 (UniProt P20618)	0.836 ± 0.31	0.99 ± 0.057
STMN1 (UniProt P16949)	0.937 ± 0.077	0.888 ± 0.076
CKS2 (UniProt P33552)	1.03 ± 0.036	1.02 ± 0.025
AKAP5 (UniProt P24588)	0.931 ± 0.025	1.06 ± 0.04
UniProt P29350 and related entries	1.05 ± 0.076	1.06 ± 0.07
UniProt P29353 and related entries	0.982 ± 0.029	1.03 ± 0.019
ALDH4A1 (UniProt P30038)	0.997 ± 0.037	1.01 ± 0.022
UniProt P18433 and related entries	1.11 ± 0.069	1.04 ± 0.046
GRK5 (UniProt P34947)	1.21 ± 0.024	1.19 ± 0.15
UniProt P19367 and related entries	1.04 ± 0.059	1.03 ± 0.034
GNA15 (UniProt P30679)	1.08 ± 0.11	1.02 ± 0.025
UniProt P20020 and related entries	0.994 ± 0.067	1.04 ± 0.092
PFKL (UniProt P17858)	1.02 ± 0.039	1.05 ± 0.056
CALR (UniProt P27797)	0.992 ± 0.056	1.03 ± 0.076
UniProt P27635 and related entries	0.951 ± 0.036	0.932 ± 0.08
UniProt P28907	0.907 ± 0.069	0.895 ± 0.089
SCP2 (UniProt P22307)	0.938 ± 0.012	0.941 ± 0.056

Target	NP40-soluble protein abundance (concentration: 0.1mM)	NP40-soluble protein abundance (concentration: 0.5mM)
PTPN1 (UniProt P18031)	1.04 ± 0.063	1.02 ± 0.063
HOXB4 (UniProt P17483)	0.973 ± 0.061	0.939 ± 0.052
ERP29 (UniProt P30040)	0.958 ± 0.021	0.956 ± 0.03
NDUFB7 (UniProt P17568)	0.909 ± 0.11	0.885 ± 0.025
RAB3A (UniProt P20336)	0.9773 ± 0.0078	0.951 ± 0.091
UniProt P17544-2|P17544-4|P17544-6	1.12 ± 0.12	0.937 ± 0.038
UniProt P26010 and related entries	0.889 ± 0.15	0.927 ± 0.13
MYH9 (UniProt P35579)	0.959 ± 0.06	1.05 ± 0.12
UniProt P17252	1.04 ± 0.068	1.04 ± 0.066
UniProt P28799 and related entries	1 ± 0.047	0.981 ± 0.038
UniProt P22033	1.02 ± 0.046	1.03 ± 0.047
DDX6 (UniProt P26196)	0.998 ± 0.051	1.02 ± 0.017
UniProt P27824 and related entries	0.967 ± 0.05	1.02 ± 0.049
VARS (UniProt P26640)	1.05 ± 0.073	1.01 ± 0.036
SLC9A1 (UniProt P19634)	0.98 ± 0.066	0.962 ± 0.021
SPR (UniProt P35270)	0.971 ± 0.045	0.915 ± 0.037
UniProt P20340 and related entries	1.09 ± 0.11	1.08 ± 0.071
PGAM1 (UniProt P18669)	0.933 ± 0.13	1.03 ± 0.069
BCKDHB (UniProt P21953)	1.16 ± 0.17	1.08 ± 0.044
UniProt P20963 and related entries	0.93 ± 0.077	0.934 ± 0.15
UniProt P23511 and related entries	0.899 ± 0.024	0.945 ± 0.058

Looked up one by one from the list above (3):
Target	NP40-soluble protein abundance (concentration: 0.1mM)	NP40-soluble protein abundance (concentration: 0.5mM)
PTPN1 (UniProt P18031)	1.04 ± 0.063	1.02 ± 0.063
RAB3A (UniProt P20336)	0.9773 ± 0.0078	0.951 ± 0.091
ALDH4A1 (UniProt P30038)	0.997 ± 0.037	1.01 ± 0.022

Further entries:

Target	NP40-soluble protein abundance (concentration: 0.1mM)	NP40-soluble protein abundance (concentration: 0.5mM)
UniProt P20073 and related entries	0.96 ± 0.026	0.929 ± 0.047
ATP2A2 (UniProt P16615)	1.06 ± 0.052	1.06 ± 0.044
UniProt P30520	1.02 ± 0.056	1.01 ± 0.053
POLR2C (UniProt P19387)	1.02 ± 0.054	1.05 ± 0.027
HMGB2 (UniProt P26583)	0.897 ± 0.17	0.845 ± 0.22
RPL7 (UniProt P18124)	0.983 ± 0.12	0.948 ± 0.11
UniProt P25054 and related entries	0.926 ± 0.071	0.989 ± 0.033
HNRNPA2B1 (UniProt P22626)	1.01 ± 0.11	1.08 ± 0.098
PSMB6 (UniProt P28072)	0.969 ± 0.031	0.928 ± 0.04
PSMB8 (UniProt P28062)	0.98 ± 0.049	0.9754 ± 0.0026
UniProt P17612	1 ± 0.076	1.05 ± 0.032
WARS (UniProt P23381)	1.02 ± 0.078	1.04 ± 0.067
YWHAB (UniProt P31946)	0.9 ± 0.08	0.912 ± 0.092
MCM7 (UniProt P33993)	1 ± 0.039	1 ± 0.033
DGKA (UniProt P23743)	1.1 ± 0.089	1.17 ± 0.11
ERCC2 (UniProt P18074)	1.04 ± 0.039	1.02 ± 0.047
TNFAIP3 (UniProt P21580)	1.01 ± 0.045	0.9318 ± 0.0061
LMNB1 (UniProt P20700)	0.934 ± 0.04	0.98 ± 0.13
UniProt P23610	0.931 ± 0.056	0.914 ± 0.059
UniProt P29016	0.888 ± 0.093	0.869 ± 0.13
UniProt P17010 and related entries	1.02 ± 0.13	0.936 ± 0.023
